Assay results as given in patent publication US11845681B2, “Process and plant for treating wastewater containing micropollutants of pharmaceutical origin” (Cockerill Maintenance & Ingenierie S.A., priority 2018, dated 2023).
For some assays here: At least one compound was matched to its structure with a doubt left. Some of these results come from one statement about several compounds together.

Assays:
fixed biomass = settings: constant includes sorption, desorption and biodegradation; cited from earlier work
suspended biomass = settings: constant includes sorption, desorption and biodegradation; cited from earlier work
[1] = Purification efficiency of biologically activated carbon (BAC) columns C1 to C5; settings: detailed analysis on 16 molecules, over column conditions
Description: The activated carbon used was in GAC form, for example of the Norit 830W type (Cabot). According to the invention, however, several types of activated carbon may be used, by varying the nature of the carbon, the specific surface developed and the type of pores.
According to one embodiment, the GAC was conditioned for 2 months with the wastewater effluents coming from the MB-MBR before being placed in an acrylic glass column. Operation was monitored for approximately 5 months. The purpose of conditioning is to reduce the time before the breakthrough point of the filter, i.e. the moment when the adsorption capacity is exhausted and biodegradation is the dominant process.
The biological purification performance of micropollutants was evaluated according to the following methodology: • 1. Saturation of adsorption sites and verification by measuring the reduction in dissolved organic carbon; • 2. Evaluation of bacterial activity via measurements of oxygen consumption; • 3. Correlation analyzes between bacterial activity and micropollutant removal.
Based on the operational parameters selected for columns C1 to C5, the purification efficiencies of 12 of the 13 molecules indicative of the efficiency of the method are presented in FIG. 8.

| SMILES | Kbio, Biomass Fixed (fixed biomass) | Kbio, Biomass suspended (suspended biomass) | average degradation [1] |
| --- | --- | --- | --- |
| CC(C)(Oc1ccc(CCNC(=O)c2ccc(Cl)cc2)cc1)C(=O)O [Bezafibrate] | 5.2-6.0 l/g biomass · day | 2.3-2.9 l/g biomass · day |  |
| NC(=O)N1c2ccccc2C=Cc2ccccc21 [Carbamazepine] |  |  | more than 80% |
| CCN1CCCC1CNC(=O)c1cc(S(=O)(=O)CC)c(N)cc1OC (centres unmarked) [amisulpride] |  |  | more than 80% |
| NS(=O)(=O)c1cc2c(cc1Cl)NCNS2(=O)=O [hydrochlorothiazide] |  |  | more than 80% |
